Publication PMC2944812
Results are given in words; binding and its absence hold for the method and conditions named. In cells and extracts the contact can be indirect. Some results given as binding are weak or reduced against the parent protein; the word gives no strength.

By UniProt entry, the sequences of proteins in these tests, tags left out. Where a name states a change or a piece, a line headed by the entry shows the natural chain unless it says otherwise.
UniProt P02745: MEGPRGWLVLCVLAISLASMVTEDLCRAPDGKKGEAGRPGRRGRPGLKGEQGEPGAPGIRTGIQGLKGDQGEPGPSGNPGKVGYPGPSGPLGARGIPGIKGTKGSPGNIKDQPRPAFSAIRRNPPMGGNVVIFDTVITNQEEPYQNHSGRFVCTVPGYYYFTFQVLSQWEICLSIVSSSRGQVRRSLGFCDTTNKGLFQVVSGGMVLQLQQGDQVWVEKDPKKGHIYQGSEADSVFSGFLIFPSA
UniProt P02746: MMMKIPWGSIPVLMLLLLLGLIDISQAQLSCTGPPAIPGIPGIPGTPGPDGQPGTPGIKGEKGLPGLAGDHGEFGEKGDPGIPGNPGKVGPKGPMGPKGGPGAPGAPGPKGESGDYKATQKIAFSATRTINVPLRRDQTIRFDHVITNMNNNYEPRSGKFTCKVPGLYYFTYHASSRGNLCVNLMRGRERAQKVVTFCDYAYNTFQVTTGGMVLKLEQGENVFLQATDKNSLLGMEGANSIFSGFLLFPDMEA
UniProt P02747: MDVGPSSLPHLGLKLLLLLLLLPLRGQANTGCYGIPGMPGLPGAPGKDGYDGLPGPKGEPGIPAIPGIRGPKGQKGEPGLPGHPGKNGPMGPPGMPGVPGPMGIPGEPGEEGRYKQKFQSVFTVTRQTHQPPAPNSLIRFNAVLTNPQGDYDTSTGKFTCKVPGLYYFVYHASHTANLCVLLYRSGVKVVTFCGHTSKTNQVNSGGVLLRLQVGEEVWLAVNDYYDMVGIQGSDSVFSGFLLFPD

Target: Human C1q (human) (UniProt P02745+P02746+P02747)
Test: pull-down; Human serum or C1q-depleted serum (99% depletion) diluted 1:3 in 20 mM phosphate pH 7.4, 0.075 M NaCl, 10 mM EDTA passed over CS-A-Sepharose or control Sepharose; eluted with 1.0 M NaCl; eluate analysed by reducing SDS-PAGE and Western blot

B1: C1 inhibitor (protein, UniProt P05155 23-500)
chain: NPNATSSSSQDPESLQDRGEGKVATTVISKMLFVEPILEVSSLPTTNSTTNSATKITANTTDEPTTQPTTEPTTQPTIQPTQPTTQLPTDSPTQPTTGSFCPGPVTLCSDLESHSTEAVLGDALVDFSLKLYHAFSAMKKVETNMAFSPFSIASLLTQVLLGAGENTKTNLESILSYPKDFTCVHQALKGFTTKGVTSVSQIFHSPDLAIRDTFVNASRTLYSSSPRVLSNNSDANLELINTWVAKNTNNKISRLLDSLPSDTRLVLLNAIYLSAKWKTTFDPKKTRMEPFHFKNSVIKVPMMNSKKYPVAHFIDQTLKAKVGQLQLSHNLSLVILVPQNLKHRLEDMEQALSPSVFKAIMEKLEMSKFQPTLLTLPRIKVTTSQDMLSIMEKLEFFDFSYDLNLCGLTEDPDLQVSAMQHQTVLELTETGVEAAAASAISVARTLLVFEVQQPFLFVLWDQQHKFPVFMGRVYDPRA
binding: binds
